In PMC10834545:
Results are given in words; binding and its absence hold for the method and conditions named. Binding seen in cells or lysates may run through a third protein. Some entries that bind do so weakly or less than the wild type. Where a sequence is shown, tags or fusion partners need not be part of it.

By UniProt entry, the sequences of proteins in these tests, tags left out.
UniProt P01106: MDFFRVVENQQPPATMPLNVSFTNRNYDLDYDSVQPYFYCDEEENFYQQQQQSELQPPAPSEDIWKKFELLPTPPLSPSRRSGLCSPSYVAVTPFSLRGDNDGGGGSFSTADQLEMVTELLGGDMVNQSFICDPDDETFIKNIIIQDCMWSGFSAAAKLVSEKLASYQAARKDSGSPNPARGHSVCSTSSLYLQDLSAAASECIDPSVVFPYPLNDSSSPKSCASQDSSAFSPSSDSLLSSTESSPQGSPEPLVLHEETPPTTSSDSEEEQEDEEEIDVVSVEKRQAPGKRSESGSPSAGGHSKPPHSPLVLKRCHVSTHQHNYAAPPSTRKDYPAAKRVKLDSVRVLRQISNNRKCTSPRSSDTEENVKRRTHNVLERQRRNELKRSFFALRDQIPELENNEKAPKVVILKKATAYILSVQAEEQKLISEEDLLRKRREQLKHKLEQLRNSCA

B1: FSTL3 protein found with HA-c-Myc constructs in HCT116 cells (protein, UniProt O95633 27-263)
chain: MGSGNPAPGGVCWLQQGQEATCSLVLQTDVTRAECCASGNIDTAWSNLTHPGNKINLLGFLGLVHCLPCKDSCDGVECGPGKACRMLGGRPRCECAPDCSGLPARLQVCGSDGATYRDECELRAARCRGHPDLSVMYRGRCRKSCEHVVCPRPQSCVVDQTGSAHCVVCRAAPCPVPSSPGQELCGNNNVTYISSCHMRQATCFLGRSIGVRHAGSCAGTPEEPPGGESAEEEENFV

Columns and labels:
[1] = target: T1, Flag-tagged follistatin-like 3 (FSTL3), overexpressed from lentivirus in FSTL3-OE HCT116 cells (UniProt O95633); test: co-IP; lysate (NP-40 lysis buffer) of FSTL3-OE HCT116 cells; IP with anti-Flag or anti-c-Myc antibody at 4 °C overnight, protein A/G magnetic beads, western blotting
T1 sequence: B1 chain

[2] = target: T2, Flag-FSTL3-(189–245aa) deletion (human) (UniProt O95633); test: co-IP; HCT116 cells transfected with plasmids of Flag-FSTL3 full-length or deletion constructs; IP with anti-Flag antibody, western blotting
T2 sequence: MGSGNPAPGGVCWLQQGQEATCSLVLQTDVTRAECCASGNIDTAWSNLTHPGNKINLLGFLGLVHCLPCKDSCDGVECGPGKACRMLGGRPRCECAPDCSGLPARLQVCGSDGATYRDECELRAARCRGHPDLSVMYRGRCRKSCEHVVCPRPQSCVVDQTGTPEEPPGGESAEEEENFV

[3] = target: T3, Flag-FSTL3 full-length (human) (UniProt O95633); test: as above
T3 sequence: B1 chain

[4] = target: HA-c-Myc full-length (human) (UniProt P01106); test: co-IP; HCT116 cells transfected with plasmids of HA-c-Myc full-length or deletion constructs; IP with anti-HA antibody, western blotting

Molecule	binding [1]	binding [2]	binding [3]	binding [4]
MYC proto-oncogene, bHLH transcription factor (c-Myc), endogenous in HCT116 cells (from UniProt P01106 1-454)	binds	binds	binds	
B1				binds
